The experiment concerns the target T1, Flag-tagged human Thioredoxin1 Cys35Ser mutant (flag-hTrx1C35S) (human) (UniProt P10599).
T1 sequence: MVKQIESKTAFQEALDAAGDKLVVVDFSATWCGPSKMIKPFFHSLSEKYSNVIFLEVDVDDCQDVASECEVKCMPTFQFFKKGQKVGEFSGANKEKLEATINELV
Kind of experiment: affinity purification with mass spectrometry.

Results are given in words; binding and its absence hold for the method and conditions named. In cells and extracts the contact can be indirect. Here binding means that the protein was enriched with, or labelled near, the bait; the list need not be complete. Sequences can lack the tags named with a protein.

B1: vesicular glutamate transporter 2 (SLC17A6) (protein, UniProt Q8BLE7 1-582)
chain: MESVKQRILAPGKEGIKNFAGKSLGQIYRVLEKKQDNRETIELTEDGKPLEVPEKKAPLCDCTCFGLPRRYIIAIMSGLGFCISFGIRCNLGVAIVDMVNNSTIHRGGKVIKEKAKFNWDPETVGMIHGSFFWGYIITQIPGGYIASRLAANRVFGAAILLTSTLNMLIPSAARVHYGCVIFVRILQGLVEGVTYPACHGIWSKWAPPLERSRLATTSFCGSYAGAVIAMPLAGILVQYTGWSSVFYVYGSFGMVWYMFWLLVSYESPAKHPTITDEERRYIEESIGESANLLGAMEKFKTPWRKFFTSMPVYAIIVANFCRSWTFYLLLISQPAYFEEVFGFEISKVGMLSAVPHLVMTIIVPIGGQIADFLRSKQILSTTTVRKIMNCGGFGMEATLLLVVGYSHTRGVAISFLVLAVGFSGFAISGFNVNHLDIAPRYASILMGISDGVGTLSGMVCPIIVGAMTKNKSREEWQYVFLIAALVHYGGVIFYALFASGEKQPWADPEETSEEKCGFIHEDELDEETGDITQNYINYGTTKSYGATSQENGGWPNGWEKKEEFVQEGAQDAYTYKDRDDYS
On to B1, for which the binding result is given as “binds”.

B2: vesicular inhibitory amino acid transporter (SLC32A1) (protein, UniProt O35633 1-525)
chain: MATLLRSKLTNVATSVSNKSQAKVSGMFARMGFQAATDEEAVGFAHCDDLDFEHRQGLQMDILKSEGEPCGDEGAEAPVEGDIHYQRGGAPLPPSGSKDQAVGAGGEFGGHDKPKITAWEAGWNVTNAIQGMFVLGLPYAILHGGYLGLFLIIFAAVVCCYTGKILIACLYEENEDGEVVRVRDSYVAIANACCAPRFPTLGGRVVNVAQIIELVMTCILYVVVSGNLMYNSFPGLPVSQKSWSIIATAVLLPCAFLKNLKAVSKFSLLCTLAHFVINILVIAYCLSRARDWAWEKVKFYIDVKKFPISIGIIVFSYTSQIFLPSLEGNMQQPSEFHCMMNWTHIAACVLKGLFALVAYLTWADETKEVITDNLPGSIRAVVNLFLVAKALLSYPLPFFAAVEVLEKSLFQEGSRAFFPACYGGDGRLKSWGLTLRCALVVFTLLMAIYVPHFALLMGLTGSLTGAGLCFLLPSLFHLRLLWRKLLWHQVFFDVAIFVIGGICSVSGFVHSLEGLIEAYRTNAED
Turning to B2, the binding result was “binds”.

B3: cysteine and glycine rich protein 1 (CSRP1) (protein, UniProt P97315 1-193)
chain: MPNWGGGKKCGVCQKTVYFAEEVQCEGNSFHKSCFLCMVCKKNLDSTTVAVHGEEIYCKSCYGKKYGPKGYGYGQGAGTLSTDKGESLGIKHEEAPGHRPTTNPNASKFAQKIGGSERCPRCSQAVYAAEKVIGAGKSWHKSCFRCAKCGKGLESTTLADKDGEIYCKGCYAKNFGPKGFGFGQGAGALVHSE
B3: the binding entry is “binds”.

B4: plasminogen activator inhibitor 1 RNA-binding protein (SERBP1) (protein, UniProt Q9CY58 1-407)
chain: MPGHLQEGFGCVVTNRFDQLFDDESDPFEVLKAAENKKKEAGGGGVGGPGAKSAAQAAAQTNSNAAGKQLRKESQKDRKNPLPPSVGVADKKEETQPPVALKKEGIRRVGRRPDQQLQGDGKLIDRRAERRPPRERRFEKPLEEKGEGGEFSVDRPIIERPIRGRGGLGRGRGGRGRGMGRGDGFDSRGKREFDRHSGSDRSSFSHYSGLKHEDKRGGSGSHNWGTVKDELTESPKYIQKQISYNCSDLDQSNVTEETPEGEEHPVADTENKENEVEEVKEEGPKEMTLDEWKAIQNKDRAKVEFNIRKPNEGADGQWKKGFVLHKSKSEEAHAEDSVMDHHFRKPANDITSQLEINFGDLGRPGRGGRGGRGGRGRGGRPNRGSRTDKSSASAPDVDDPEAFPALA
Regarding B4, the binding result was “binds”.

B5: Solute carrier family 12 member 5 (SLC12A5) (protein, UniProt Q91V14 1-1138)
chain: MSRRFTVTSLPPAASAASADPESRRHSVADPRRLPREDVKGDGNPKESSPFINSTDTEKGREYDGRNMALFEEEMDTSPMVSSLLSGLANYTNLPQGSREHEEAENNEGGKKKPVQAPRMGTFMGVYLPCLQNIFGVILFLRLTWVVGIAGIMESFCMVFICCSCTMLTAISMSAIATNGVVPAGGSYYMISRSLGPEFGGAVGLCFYLGTTFAGAMYILGTIEILLAYLFPAMAIFKAEDASGEAAAMLNNMRVYGTCVLTCMATVVFVGVKYVNKFALVFLGCVILSILAIYAGVIKSAFDPPNFPICLLGNRTLSRHGFDVCAKLAWEGNETVTTRLWGLFCSSRLLNATCDEYFTRNNVTEIQGIPGAASGLIKENLWSSYLTKGVIVERRGMPSVGLADGTPVDMDHPYVFSDMTSYFTLLVGIYFPSVTGIMAGSNRSGDLRDAQKSIPTGTILAIATTSAVYISSVVLFGACIEGVVLRDKFGEAVNGNLVVGTLAWPSPWVIVIGSFFSTCGAGLQSLTGAPRLLQAISRDGIVPFLQVFGHGKANGEPTWALLLTACICEIGILIASLDEVAPILSMFFLMCYMFVNLACAVQTLLRTPNWRPRFRYYHWTLSFLGMSLCLALMFICSWYYALVAMLIAGLIYKYIEYRGAEKEWGDGIRGLSLSAARYALLRLEEGPPHTKNWRPQLLVLVRVDQDQNVVHPQLLSLTSQLKAGKGLTIVGSVLEGTFLDNHPQAQRAEESIRRLMEAEKVKGFCQVVISSNLRDGVSHLIQSGGLGGLQHNTVLVGWPRNWRQKEDHQTWRNFIELVRETTAGHLALLVTKNVSMFPGNPERFSEGSIDVWWIVHDGGMLMLLPFLLRHHKVWRKCKMRIFTVAQMDDNSIQMKKDLTTFLYHLRITAEVEVVEMHESDISAYTYEKTLVMEQRSQILKQMHLTKNEREREIQSITDESRGSIRRKNPANPRLRLNVPEETACDNEEKPEEEVQLIHDQSAPSCPSSSPSPGEEPEGERETDPEVHLTWTKDKSVAEKNKGPSPVSSEGIKDFFSMKPEWENLNQSNVRRMHTAVRLNEVIVNKSRDAKLVLLNMPGPPRNRNGDENYMEFLEVLTEQLDRVMLVRGGGREVITIYS
B5: the binding entry is “binds”.

B6: peroxiredoxin-5 (PRDX5) (enzyme, UniProt P99029 49-210)
chain: MAPIKVGDAIPSVEVFEGEPGKKVNLAELFKGKKGVLFGVPGAFTPGCSKTHLPGFVEQAGALKAKGAQVVACLSVNDVFVIEEWGRAHQAEGKVRLLADPTGAFGKATDLLLDDSLVSLFGNRRLKRFSMVIDNGIVKALNVEPDGTGLTCSLAPNILSQL
For the molecule B6, the binding entry is “binds”.

B7: solute carrier family 12 member 6 (SLC12A6) (protein, UniProt Q924N4 1-1150)
chain: MHPPEATTKMSSVRFMVTPTKIDDIPGLSDTSPDLSSRSSSRVRFSSRESVPETSRSEPMSELSGATTSLATVALDPSSDRTSNPQDVTEDPSQNSITGEHSQLLDDGHKKARNAYLNNSNYEEGDEYFDKNLALFEEEMDTRPKVSSLLNRMANYTNLTQGAKEHEEAENITEGKKKPTKSPQMGTFMGVYLPCLQNIFGVILFLRLTWVVGTAGILQAFAIVLICCCCTMLTAISMSAIATNGVVPAGGSYFMISRALGPEFGGAVGLCFYLGTTFAAAMYILGAIEIFLVYIVPRAAIFRSDDALKESAAMLNNMRVYGTAFLVLMVLVVFIGVRYVNKFASLFLACVIVSILAIYAGAIKSSFAPPHFPVCMLGNRTLSSRHLDICSKTKEVDNMTVPSKLWGFFCNSSQFFNATCDEYFVHNNVISIQGIPGLASGIITENLWSNYLPKGEIIEKPSAKSSDVLGNLNHEYVLADITTSFTLLVGIFFPSVTGIMAGSNRSGDLKDAQKSIPIGTILAILTTSFVYLSNVVLFGACIEGVVLRDKFGDAVKGNLVVGTLSWPSPWVIVIGSFFSTCGAGLQSLTGAPRLLQAIAKDNIIPFLRVFGHSKANGEPTWALLLTAAIAELGILIASLDLVAPILSMFFLMCYLFVNLACALQTLLRTPNWRPRFRYYHWALSFMGMSICLALMFISSWYYAIVAMVIAGMIYKYIEYQGAEKEWGDGIRGLSLSAARFALLRLEEGPPHTKNWRPQLLVLLKLDEDLHVKHPRLLTFASQLKAGKGLTIVGSVIVGNFLENYGDALAAEQTIKHLMEAEKVKGFCQLVVAAKLKEGISHLIQSCGLGGMKHNTVVMGWPNGWRQSEDARAWKTFIGTVRVTTAAHLALLVAKNVSFFPSNVEQFSEGNIDVWWIVHDGGMLMLLPFLLKQHKVWRKCSIRIFTVAQLEDNSIQMKKDLATFLYHLRIEAEVEVVEMHDSDISAYTYERTLMMEQRSQMLRHMRLSKTERDREAQLVKDRNSMLRLTSIGSDEDEETETYQEKVHMTWTKDKYMASRGQKVKSMEGFQDLLNMRPDQSNVRRMHTAVKLNEVIVNKSHEAKLVLLNMPGPPRNPEGDENYMEFLEVLTEGLERVLLVRGGGSEVITIYS
As to B7, the binding result is “binds”.

For the origin of these results see article doi:10.1101/2024.02.27.582366.
